These are yes or no findings as the source states them, for the method shown. Binding seen in cells or lysates may run through a third protein. Here binding means that the protein was enriched with, or labelled near, the bait; the list need not be complete. No binding means not detected with the bait.

Amino acid sequences for entries named in this document (tags omitted).
UniProt Q6PR54: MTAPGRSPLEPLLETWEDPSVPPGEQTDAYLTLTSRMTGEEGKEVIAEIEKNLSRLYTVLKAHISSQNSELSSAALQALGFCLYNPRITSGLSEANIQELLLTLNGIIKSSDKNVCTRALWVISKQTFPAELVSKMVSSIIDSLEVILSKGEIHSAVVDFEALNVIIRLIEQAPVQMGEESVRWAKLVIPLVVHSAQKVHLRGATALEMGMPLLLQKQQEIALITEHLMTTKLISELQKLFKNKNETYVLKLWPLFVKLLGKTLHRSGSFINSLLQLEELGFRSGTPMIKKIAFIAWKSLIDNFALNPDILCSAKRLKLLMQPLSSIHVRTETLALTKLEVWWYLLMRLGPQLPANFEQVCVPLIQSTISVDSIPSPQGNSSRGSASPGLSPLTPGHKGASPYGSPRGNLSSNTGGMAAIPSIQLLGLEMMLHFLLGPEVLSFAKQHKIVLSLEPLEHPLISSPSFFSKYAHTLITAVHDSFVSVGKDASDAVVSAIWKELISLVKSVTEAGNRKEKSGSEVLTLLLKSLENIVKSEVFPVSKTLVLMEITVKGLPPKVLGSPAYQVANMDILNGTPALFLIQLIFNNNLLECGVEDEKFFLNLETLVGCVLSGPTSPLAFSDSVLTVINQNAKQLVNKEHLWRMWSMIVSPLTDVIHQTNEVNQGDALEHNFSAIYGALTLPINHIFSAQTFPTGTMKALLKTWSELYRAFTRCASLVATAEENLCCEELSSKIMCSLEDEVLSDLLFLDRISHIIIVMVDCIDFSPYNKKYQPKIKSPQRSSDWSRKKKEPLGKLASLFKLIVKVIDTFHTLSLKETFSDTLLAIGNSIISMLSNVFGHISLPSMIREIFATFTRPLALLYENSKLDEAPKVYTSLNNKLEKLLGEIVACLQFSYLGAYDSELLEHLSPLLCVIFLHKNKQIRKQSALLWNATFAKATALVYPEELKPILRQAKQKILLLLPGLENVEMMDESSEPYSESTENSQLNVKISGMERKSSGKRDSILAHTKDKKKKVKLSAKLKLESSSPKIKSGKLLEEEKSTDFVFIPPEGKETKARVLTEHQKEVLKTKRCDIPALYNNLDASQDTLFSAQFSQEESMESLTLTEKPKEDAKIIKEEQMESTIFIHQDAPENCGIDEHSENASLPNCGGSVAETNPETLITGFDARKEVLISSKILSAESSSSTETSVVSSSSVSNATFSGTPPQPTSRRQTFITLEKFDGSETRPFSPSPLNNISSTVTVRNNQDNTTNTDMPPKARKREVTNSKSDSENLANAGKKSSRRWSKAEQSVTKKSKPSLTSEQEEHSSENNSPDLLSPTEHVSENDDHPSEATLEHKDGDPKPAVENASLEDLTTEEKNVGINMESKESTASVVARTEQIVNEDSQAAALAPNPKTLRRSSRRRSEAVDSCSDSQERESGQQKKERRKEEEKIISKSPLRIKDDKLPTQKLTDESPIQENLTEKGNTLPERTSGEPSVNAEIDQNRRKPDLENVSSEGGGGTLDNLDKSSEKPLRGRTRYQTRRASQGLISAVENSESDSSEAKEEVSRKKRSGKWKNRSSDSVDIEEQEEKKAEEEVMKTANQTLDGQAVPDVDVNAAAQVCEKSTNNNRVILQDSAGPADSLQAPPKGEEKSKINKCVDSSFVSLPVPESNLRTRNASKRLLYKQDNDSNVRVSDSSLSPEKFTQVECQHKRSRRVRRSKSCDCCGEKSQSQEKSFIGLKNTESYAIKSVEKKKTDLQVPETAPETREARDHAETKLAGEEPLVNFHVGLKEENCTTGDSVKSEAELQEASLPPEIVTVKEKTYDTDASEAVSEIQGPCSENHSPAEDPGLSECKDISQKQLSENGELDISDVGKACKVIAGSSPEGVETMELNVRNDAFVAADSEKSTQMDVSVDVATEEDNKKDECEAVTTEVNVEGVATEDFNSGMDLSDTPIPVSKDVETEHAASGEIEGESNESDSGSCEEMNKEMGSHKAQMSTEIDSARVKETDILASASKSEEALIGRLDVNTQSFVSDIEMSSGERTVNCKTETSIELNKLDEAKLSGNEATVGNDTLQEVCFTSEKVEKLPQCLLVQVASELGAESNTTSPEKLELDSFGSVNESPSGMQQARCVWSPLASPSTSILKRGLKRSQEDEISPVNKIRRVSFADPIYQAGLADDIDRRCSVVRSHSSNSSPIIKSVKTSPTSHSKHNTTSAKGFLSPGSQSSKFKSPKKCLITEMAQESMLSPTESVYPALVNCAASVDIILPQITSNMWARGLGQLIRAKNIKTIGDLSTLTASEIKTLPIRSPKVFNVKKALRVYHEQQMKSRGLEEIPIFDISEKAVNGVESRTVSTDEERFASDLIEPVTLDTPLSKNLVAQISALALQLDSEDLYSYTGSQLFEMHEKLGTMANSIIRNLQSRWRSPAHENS
UniProt O88685: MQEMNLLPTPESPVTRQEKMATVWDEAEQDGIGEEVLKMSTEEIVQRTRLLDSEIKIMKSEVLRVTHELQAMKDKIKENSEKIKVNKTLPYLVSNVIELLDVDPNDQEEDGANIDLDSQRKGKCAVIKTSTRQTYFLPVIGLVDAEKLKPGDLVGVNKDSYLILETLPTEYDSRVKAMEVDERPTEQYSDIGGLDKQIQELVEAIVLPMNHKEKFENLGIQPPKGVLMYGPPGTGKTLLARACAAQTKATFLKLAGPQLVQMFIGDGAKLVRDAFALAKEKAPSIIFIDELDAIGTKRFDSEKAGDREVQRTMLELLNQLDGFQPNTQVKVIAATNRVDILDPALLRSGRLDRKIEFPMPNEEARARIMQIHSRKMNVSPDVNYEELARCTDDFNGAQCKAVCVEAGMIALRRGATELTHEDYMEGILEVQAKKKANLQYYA
UniProt P43346: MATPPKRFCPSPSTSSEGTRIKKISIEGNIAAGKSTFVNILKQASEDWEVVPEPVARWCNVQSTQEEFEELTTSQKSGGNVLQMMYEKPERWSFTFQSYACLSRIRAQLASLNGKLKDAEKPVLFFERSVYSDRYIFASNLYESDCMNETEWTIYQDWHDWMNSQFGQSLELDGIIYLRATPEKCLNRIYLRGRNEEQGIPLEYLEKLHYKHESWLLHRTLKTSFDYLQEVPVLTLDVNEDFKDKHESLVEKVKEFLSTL
UniProt P46935: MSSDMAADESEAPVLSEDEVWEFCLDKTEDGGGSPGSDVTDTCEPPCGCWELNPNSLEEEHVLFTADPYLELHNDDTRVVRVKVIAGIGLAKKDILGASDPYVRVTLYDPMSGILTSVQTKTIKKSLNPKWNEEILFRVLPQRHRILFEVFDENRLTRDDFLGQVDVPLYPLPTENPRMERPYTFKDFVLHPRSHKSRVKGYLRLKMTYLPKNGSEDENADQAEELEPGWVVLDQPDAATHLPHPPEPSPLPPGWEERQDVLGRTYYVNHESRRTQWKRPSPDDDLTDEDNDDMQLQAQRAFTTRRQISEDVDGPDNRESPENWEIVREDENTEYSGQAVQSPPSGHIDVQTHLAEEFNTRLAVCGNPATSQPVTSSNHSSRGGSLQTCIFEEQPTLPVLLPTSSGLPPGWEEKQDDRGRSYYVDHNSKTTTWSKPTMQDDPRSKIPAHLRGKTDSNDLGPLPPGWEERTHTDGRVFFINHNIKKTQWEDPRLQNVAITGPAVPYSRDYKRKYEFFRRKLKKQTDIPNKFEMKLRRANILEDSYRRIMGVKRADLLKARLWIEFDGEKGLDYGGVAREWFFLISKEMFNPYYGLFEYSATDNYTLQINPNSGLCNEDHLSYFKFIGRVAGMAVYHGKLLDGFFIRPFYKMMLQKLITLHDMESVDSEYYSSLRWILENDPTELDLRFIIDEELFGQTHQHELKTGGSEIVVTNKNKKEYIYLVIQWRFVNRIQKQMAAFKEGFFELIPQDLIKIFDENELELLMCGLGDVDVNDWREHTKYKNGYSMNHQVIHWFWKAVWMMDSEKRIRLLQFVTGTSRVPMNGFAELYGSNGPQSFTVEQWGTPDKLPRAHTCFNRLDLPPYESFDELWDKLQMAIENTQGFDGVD
UniProt P23116: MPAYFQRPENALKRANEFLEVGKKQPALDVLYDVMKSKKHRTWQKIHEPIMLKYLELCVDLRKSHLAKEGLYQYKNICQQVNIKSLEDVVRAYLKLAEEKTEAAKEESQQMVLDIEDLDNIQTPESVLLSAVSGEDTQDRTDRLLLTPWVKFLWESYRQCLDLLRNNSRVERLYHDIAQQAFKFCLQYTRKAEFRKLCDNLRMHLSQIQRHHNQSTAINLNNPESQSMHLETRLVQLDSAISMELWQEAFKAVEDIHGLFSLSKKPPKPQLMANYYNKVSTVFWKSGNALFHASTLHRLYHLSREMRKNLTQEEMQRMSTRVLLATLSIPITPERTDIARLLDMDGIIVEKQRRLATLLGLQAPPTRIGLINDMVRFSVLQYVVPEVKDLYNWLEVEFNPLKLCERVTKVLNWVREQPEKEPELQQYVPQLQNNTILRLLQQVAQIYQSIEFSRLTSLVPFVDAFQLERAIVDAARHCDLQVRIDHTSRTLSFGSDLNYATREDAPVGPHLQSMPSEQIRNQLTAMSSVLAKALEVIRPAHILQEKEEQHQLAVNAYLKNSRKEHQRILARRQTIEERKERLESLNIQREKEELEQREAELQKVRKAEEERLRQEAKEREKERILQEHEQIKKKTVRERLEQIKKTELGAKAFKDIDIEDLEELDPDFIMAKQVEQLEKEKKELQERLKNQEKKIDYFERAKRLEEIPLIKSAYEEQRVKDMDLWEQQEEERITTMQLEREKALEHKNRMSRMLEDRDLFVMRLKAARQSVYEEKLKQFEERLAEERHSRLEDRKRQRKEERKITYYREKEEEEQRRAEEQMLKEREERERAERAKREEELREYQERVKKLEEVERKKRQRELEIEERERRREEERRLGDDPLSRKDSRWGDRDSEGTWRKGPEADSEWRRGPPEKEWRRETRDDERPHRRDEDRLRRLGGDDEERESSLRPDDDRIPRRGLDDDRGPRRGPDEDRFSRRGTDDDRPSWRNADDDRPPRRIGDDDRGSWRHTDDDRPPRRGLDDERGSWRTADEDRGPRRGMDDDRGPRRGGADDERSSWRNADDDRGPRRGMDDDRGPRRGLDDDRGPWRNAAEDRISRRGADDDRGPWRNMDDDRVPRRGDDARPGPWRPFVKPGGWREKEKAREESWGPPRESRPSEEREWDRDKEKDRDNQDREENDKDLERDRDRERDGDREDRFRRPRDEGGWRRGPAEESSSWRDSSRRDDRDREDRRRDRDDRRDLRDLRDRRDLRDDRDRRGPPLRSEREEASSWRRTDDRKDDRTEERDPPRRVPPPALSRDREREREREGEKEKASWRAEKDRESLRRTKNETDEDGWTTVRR
UniProt P60229: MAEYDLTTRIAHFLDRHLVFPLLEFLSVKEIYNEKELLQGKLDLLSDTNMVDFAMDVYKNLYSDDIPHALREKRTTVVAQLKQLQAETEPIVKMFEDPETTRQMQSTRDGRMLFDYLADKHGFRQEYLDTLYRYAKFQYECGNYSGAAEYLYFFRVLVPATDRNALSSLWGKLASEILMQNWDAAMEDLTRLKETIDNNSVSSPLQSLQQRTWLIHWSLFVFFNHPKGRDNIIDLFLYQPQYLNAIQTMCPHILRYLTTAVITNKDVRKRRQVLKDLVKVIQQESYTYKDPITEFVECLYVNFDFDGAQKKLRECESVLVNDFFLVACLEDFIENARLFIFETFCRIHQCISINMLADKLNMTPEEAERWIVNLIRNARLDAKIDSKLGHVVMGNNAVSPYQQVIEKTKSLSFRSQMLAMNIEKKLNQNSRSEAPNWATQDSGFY
UniProt P63087: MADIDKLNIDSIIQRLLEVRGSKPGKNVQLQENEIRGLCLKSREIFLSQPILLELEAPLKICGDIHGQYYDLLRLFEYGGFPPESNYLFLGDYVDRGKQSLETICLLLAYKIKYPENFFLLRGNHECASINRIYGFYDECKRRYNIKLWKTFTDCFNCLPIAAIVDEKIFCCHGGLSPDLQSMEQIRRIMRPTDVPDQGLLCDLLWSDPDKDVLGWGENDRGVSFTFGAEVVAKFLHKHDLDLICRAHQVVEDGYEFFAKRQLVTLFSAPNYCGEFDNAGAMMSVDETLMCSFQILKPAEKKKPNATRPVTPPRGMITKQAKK
UniProt P62137: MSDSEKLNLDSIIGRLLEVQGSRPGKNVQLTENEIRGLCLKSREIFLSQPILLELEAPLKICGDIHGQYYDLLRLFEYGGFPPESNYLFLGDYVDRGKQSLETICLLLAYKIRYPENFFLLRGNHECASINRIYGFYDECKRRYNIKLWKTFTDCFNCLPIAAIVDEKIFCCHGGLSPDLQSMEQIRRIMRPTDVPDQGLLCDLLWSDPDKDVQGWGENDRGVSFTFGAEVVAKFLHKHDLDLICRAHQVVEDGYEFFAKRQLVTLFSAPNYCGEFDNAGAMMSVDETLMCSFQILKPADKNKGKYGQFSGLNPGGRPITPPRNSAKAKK

The assay has as its target Rif1^FLAG-HA2 (endogenous mouse Rif1 carrying a knock-in FLAG-HA2 tag) (mouse) (UniProt Q6PR54). Description: affinity purification with mass spectrometry; anti-Flag M2 affinity gel IP of Rif1^FH from nuclear extracts of Rif1^FH/+ mouse ESCs (Benzonase, 0.2% Triton X-100), overnight 4 °C, washes with 150 mM NaCl and 0.1% Triton X-100, Flag-peptide elution; label-free quantitation against Rif1^+/+ ESCs.
With “26S proteasome regulatory subunit 6A (from UniProt O88685 1-442)”, the binding entry is given as “binds”.
As for “Deoxycytidine Kinase (from UniProt P43346 1-260) (enzyme)”, the binding entry is on record as “binds”.
Take “E3 ubiquitin-protein ligase NEDD4 (from UniProt P46935 1-887) (enzyme)”: the binding entry is on record as “binds”.
The result for “Eukaryotic translation initiation factor subunit A (from UniProt P23116 1-1344)” reads “binds”.
Then “Eukaryotic translation initiation factor subunit E (from UniProt P60229 1-445)”, with “binds”.
Consider Exportin 1 (from UniProt Q6P5F9 1-1071), for which the binding entry was “binds”.
“PP1γ (endogenous) (from UniProt P63087 1-323) (enzyme)”: the binding result is “no binding”.
In the case of “Protein phosphatase 1 subunit A (endogenous) (from UniProt P62137 1-330) (enzyme)”, the binding entry is “binds”.
Then “Ran-specific GTPase-activating protein (from UniProt P34022 1-203)”, with “binds”.

These data come from paper PMC5437018.
